Measured values taken from the supplement of paper PMC10849652.
The other results are listed elsewhere or left out.

The chains behind the UniProt entries cited, without tags or fusion partners. Where a name states a change or a piece, a line headed by the entry shows the natural chain unless it says otherwise.
UniProt Q92686, whole entry, looked up: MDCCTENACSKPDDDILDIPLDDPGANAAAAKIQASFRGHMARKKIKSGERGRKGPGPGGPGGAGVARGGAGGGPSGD
UniProt Q96L73: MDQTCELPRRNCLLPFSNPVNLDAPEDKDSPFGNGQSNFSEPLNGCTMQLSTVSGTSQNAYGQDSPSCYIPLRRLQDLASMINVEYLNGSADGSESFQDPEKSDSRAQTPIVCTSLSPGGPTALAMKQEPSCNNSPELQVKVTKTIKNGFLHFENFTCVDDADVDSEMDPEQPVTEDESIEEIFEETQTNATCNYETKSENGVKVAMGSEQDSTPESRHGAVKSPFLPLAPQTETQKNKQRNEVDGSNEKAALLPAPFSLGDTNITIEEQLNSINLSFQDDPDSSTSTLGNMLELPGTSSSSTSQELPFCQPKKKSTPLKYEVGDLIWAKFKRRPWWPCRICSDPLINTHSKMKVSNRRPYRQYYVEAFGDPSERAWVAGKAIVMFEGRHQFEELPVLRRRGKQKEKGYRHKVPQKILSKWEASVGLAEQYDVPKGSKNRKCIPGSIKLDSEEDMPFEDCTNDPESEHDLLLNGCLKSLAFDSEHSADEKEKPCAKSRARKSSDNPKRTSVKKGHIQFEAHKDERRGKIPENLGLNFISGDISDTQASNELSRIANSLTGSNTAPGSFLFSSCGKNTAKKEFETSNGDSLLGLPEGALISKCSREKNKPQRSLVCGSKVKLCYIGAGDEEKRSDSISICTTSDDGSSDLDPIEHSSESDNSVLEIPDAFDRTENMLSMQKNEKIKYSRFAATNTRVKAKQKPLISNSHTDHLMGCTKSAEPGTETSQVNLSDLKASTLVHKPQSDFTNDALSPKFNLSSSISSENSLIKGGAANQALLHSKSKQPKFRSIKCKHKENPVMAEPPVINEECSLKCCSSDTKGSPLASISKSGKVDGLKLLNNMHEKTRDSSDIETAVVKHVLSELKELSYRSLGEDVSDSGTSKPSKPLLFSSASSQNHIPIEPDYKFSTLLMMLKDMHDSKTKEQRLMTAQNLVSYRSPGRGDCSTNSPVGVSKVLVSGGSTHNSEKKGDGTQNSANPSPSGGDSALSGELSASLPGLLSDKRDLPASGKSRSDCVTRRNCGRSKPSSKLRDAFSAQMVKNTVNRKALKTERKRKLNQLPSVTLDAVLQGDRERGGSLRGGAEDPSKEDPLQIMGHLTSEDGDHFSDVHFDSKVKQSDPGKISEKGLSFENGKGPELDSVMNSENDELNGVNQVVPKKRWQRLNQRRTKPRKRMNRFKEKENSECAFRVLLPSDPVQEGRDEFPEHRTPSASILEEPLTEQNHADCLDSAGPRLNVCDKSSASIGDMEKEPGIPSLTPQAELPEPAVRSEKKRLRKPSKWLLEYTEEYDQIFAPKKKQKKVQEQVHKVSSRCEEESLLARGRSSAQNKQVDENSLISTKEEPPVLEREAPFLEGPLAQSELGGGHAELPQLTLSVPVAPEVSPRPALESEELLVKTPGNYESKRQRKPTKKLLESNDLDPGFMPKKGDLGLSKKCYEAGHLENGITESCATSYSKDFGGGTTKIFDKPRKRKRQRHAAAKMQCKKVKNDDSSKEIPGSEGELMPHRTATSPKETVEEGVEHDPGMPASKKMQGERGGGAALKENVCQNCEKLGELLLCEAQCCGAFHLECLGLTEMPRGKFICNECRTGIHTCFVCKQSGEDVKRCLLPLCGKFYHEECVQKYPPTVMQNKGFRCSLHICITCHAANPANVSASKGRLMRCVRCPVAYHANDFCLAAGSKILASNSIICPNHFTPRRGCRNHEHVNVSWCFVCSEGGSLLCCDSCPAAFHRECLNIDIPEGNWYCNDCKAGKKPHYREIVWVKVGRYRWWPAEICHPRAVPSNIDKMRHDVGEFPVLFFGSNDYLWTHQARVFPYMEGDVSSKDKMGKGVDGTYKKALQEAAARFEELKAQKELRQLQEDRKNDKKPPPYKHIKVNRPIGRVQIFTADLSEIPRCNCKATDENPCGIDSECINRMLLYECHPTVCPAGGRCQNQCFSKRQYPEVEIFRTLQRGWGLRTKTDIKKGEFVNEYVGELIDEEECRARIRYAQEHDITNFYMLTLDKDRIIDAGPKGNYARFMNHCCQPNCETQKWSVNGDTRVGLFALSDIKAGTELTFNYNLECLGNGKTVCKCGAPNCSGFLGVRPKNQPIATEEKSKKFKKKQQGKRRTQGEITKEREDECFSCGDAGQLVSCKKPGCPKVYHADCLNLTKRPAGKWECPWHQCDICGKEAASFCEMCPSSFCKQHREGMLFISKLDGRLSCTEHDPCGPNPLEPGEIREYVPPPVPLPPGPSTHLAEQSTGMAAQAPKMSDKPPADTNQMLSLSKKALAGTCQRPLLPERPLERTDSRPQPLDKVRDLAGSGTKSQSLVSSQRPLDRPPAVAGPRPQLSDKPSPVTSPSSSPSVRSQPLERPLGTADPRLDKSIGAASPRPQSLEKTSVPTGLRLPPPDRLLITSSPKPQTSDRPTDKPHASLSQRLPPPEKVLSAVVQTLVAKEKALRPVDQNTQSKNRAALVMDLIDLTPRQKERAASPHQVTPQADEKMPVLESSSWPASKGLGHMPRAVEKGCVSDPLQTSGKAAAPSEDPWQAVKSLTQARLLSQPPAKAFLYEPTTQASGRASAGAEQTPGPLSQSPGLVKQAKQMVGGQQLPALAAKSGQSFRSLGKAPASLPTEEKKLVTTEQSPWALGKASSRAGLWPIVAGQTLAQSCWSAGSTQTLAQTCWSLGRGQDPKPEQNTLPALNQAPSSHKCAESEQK
UniProt O95848: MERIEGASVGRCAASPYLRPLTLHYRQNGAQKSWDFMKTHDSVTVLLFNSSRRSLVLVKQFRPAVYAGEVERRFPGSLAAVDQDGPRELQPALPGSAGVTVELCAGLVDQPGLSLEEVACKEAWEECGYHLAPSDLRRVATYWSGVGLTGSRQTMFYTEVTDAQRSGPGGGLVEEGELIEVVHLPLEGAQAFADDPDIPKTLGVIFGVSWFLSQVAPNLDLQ
UniProt O96028: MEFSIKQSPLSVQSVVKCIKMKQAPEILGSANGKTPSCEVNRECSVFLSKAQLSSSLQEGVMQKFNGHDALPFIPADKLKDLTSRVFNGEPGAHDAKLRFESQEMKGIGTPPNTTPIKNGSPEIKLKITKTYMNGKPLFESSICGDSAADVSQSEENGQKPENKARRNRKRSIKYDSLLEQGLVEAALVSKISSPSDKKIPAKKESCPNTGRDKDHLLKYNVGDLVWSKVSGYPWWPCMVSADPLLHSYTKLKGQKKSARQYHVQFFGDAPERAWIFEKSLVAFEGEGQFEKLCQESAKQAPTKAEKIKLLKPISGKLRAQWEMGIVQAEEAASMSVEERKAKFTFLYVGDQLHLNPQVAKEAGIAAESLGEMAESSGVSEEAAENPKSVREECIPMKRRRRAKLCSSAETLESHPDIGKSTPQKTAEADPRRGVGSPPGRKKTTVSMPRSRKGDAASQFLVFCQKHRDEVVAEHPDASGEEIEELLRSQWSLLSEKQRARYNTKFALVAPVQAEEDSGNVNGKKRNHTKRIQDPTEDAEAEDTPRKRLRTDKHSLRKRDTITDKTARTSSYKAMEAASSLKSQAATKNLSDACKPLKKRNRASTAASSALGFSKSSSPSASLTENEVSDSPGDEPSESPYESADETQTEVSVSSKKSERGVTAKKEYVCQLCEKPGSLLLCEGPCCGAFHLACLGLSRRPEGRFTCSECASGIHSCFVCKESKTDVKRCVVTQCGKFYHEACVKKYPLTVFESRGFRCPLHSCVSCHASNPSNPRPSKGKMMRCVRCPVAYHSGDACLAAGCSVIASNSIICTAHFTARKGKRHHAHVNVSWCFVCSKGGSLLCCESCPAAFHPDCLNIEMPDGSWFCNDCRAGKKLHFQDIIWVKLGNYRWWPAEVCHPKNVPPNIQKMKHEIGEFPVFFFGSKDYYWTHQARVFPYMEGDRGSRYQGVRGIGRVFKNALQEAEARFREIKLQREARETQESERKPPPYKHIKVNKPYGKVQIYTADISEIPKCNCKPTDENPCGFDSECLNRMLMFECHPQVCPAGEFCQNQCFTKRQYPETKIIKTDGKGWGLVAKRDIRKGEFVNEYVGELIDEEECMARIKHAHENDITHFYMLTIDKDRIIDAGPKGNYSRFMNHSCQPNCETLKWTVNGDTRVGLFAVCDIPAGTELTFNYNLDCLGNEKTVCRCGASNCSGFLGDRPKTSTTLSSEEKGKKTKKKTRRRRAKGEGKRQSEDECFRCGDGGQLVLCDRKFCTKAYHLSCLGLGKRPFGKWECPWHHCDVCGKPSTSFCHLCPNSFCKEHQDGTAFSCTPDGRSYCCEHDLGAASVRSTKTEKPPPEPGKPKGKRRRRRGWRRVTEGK
UniProt Q9H1E3: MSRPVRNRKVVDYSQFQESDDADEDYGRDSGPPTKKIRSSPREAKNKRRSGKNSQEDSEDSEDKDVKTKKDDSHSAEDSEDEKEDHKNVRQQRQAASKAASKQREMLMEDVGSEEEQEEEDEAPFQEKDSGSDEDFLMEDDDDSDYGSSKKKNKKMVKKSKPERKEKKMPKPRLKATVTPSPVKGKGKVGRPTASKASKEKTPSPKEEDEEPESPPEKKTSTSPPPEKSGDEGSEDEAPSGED
UniProt O75694: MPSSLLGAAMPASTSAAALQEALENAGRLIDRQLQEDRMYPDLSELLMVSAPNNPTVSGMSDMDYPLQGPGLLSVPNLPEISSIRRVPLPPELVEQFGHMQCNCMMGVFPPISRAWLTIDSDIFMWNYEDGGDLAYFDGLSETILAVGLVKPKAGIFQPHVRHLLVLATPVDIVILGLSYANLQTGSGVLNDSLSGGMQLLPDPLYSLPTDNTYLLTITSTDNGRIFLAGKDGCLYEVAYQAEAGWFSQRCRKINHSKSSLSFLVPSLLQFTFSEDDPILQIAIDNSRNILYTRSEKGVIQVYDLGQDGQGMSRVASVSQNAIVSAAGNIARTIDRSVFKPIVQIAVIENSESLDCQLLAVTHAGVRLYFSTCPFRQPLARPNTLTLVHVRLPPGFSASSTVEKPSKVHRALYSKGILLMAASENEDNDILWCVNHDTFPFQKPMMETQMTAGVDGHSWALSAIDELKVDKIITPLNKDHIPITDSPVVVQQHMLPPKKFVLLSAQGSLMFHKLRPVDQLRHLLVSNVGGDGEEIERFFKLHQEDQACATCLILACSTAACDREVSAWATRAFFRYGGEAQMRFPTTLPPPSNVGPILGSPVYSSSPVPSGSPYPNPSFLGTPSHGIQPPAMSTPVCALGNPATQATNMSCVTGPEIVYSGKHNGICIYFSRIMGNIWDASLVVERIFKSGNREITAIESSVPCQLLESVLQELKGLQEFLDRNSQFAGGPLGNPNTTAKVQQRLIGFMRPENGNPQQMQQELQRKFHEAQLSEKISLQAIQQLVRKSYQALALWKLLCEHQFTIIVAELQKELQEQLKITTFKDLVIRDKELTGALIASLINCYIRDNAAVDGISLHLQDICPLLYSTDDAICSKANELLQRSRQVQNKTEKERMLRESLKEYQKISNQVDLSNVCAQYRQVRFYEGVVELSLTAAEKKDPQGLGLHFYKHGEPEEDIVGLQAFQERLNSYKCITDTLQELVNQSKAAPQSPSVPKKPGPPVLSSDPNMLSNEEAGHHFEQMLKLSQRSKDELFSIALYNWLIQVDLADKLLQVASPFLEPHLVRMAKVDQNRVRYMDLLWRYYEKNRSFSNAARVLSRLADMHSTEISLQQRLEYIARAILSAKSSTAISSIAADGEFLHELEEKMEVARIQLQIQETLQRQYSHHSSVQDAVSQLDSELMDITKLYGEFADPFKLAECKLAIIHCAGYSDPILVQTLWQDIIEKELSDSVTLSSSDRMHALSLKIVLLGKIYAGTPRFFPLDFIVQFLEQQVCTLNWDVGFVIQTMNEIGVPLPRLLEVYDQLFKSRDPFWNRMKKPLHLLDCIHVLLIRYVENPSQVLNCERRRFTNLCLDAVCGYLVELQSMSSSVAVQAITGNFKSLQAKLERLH
UniProt Q15738: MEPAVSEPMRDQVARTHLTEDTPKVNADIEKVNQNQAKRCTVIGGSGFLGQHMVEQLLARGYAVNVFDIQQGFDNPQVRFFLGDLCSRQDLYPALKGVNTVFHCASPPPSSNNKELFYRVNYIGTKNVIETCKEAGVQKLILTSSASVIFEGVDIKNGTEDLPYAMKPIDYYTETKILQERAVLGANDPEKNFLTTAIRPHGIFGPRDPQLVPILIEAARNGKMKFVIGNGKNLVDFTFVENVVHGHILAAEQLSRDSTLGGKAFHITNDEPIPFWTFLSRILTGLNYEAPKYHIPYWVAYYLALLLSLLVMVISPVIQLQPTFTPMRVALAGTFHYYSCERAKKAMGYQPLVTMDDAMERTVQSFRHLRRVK
UniProt Q9NZJ9: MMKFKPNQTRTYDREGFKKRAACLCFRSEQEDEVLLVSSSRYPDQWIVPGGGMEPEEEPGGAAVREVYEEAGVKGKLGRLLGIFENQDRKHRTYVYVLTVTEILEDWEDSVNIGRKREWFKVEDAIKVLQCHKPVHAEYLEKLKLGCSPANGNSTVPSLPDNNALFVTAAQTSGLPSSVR

Legend:
Experiment in all cases: log2 fold change, soluble protein after heating vs DMSO (PISA); higher = thermal stabilisation; K562 lysate, 10 uM; active = over 0.2 and 3.5 SD of the protein, either way, in both replicates (recomputed)
[1] = compound: NCC(=O)Nc1ccc(-n2nc(C(F)(F)F)cc2-c2ccc3c(ccc4ccccc43)c2)cc1
Summary of the method: (§1)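 Following dounce homogenisation of K562 pellets in PBS pH 7.4 with 1 mM MgCl2, crude extract at 1 mg/mL protein was incubated for 30 min with 10 μM compound. Aliquots were then heated for 3 min over 48°C-58°C and pooled, NP-40 was added to 0.5% at 4°C, and soluble protein was recovered as the supernatant at 21,000xg for 90 min. Channel-sum-equalised TMTpro 16plex LC-MS/MS quantified this protein. Each value, from duplicates, is a log-two fold change in thermal stability relative to solvent controls.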

[2] = compound: O=C1NC(=O)C(c2cnc3ccccn23)=C1c1cn2c3c(cc(F)cc13)CN(C(=O)N1CCCCC1)CC2
Summary of the method: as §1

vorinostat = compound: O=C(CCCCCCC(=O)Nc1ccccc1)NO [vorinostat]
Summary of the method: as §1

silmitasertib = compound: O=C(O)c1ccc2c(c1)nc(Nc1cccc(Cl)c1)c1ccncc12 [silmitasertib]
Summary of the method: as §1

entospletinib = compound: c1cn2cc(-c3ccc4cn[nH]c4c3)nc(Nc3ccc(N4CCOCC4)cc3)c2n1 [entospletinib]
Summary of the method: as §1

Measured: log2 fold change

NR2C1 (UniProt P13056)
inactive: [1] 0.061 | [2] -0.111

NRGN (UniProt Q92686)
inactive: [2] -0.052

NSD1 (UniProt Q96L73)
inactive: [1] -0.1 | vorinostat -0.027 | silmitasertib 0.084 | entospletinib 0.069

NUFIP1 (UniProt Q9UHK0)
inactive: [2] 0.014 | entospletinib 0.118

NPRL2 (UniProt Q8WTW4)
inactive: [2] 0.154

NUDT14 (UniProt O95848)
inactive: vorinostat 0.084 | silmitasertib 0.026 | [2] -0.116

NMRK1 (UniProt Q9NWW6)
inactive: [2] 0.009

NUDT7 (UniProt P0C024)
inactive: [1] 0.015 | vorinostat 0.19 | silmitasertib -0.07 | [2] 0.15 | entospletinib -0.037

NOCT (UniProt Q9UK39)
active: vorinostat -0.886
inactive: silmitasertib 0.004 | [2] -0.036 | entospletinib -0.301

NOM1 (UniProt Q5C9Z4)
inactive: [1] -0.208 | [2] 0.065 | entospletinib 0.053

Reprinted from the results shown (9 entries):
NR2C1 (UniProt P13056)
inactive: [1] 0.061 | [2] -0.111

NRGN (UniProt Q92686)
inactive: [2] -0.052

NSD1 (UniProt Q96L73)
inactive: [1] -0.1 | vorinostat -0.027 | silmitasertib 0.084 | entospletinib 0.069

NUFIP1 (UniProt Q9UHK0)
inactive: [2] 0.014 | entospletinib 0.118

NPRL2 (UniProt Q8WTW4)
inactive: [2] 0.154

NUDT14 (UniProt O95848)
inactive: vorinostat 0.084 | silmitasertib 0.026 | [2] -0.116

NMRK1 (UniProt Q9NWW6)
inactive: [2] 0.009

NUDT7 (UniProt P0C024)
inactive: [1] 0.015 | vorinostat 0.19 | silmitasertib -0.07 | [2] 0.15 | entospletinib -0.037

NOCT (UniProt Q9UK39)
active: vorinostat -0.886
inactive: silmitasertib 0.004 | [2] -0.036 | entospletinib -0.301

Remaining list, next part

NR1D1 (UniProt P20393)
inactive: entospletinib 0.273

NUMA1 (UniProt Q14980)
inactive: [1] -0.028 | vorinostat -0.152 | silmitasertib 0.018 | [2] -0.013 | entospletinib 0.006

NSD3 (UniProt Q9BZ95)
inactive: [2] 0.034 | entospletinib 0.062

NSD2 (UniProt O96028)
inactive: [1] -0.166 | [2] 0.12 | entospletinib 0.097

NUCKS1 (UniProt Q9H1E3)
inactive: [1] -0.009 | vorinostat 0.136 | silmitasertib -0.019 | [2] 0.022 | entospletinib 0

NOMO2 (UniProt Q5JPE7)
inactive: [1] -0.011 | vorinostat 0.137 | silmitasertib 0 | [2] 0.006 | entospletinib -0.003

NTRK1 (UniProt P04629)
inactive: [1] -0.05 | [2] -0.083 | entospletinib -0.03

NUP155 (UniProt O75694)
inactive: [1] 0.016 | vorinostat -0.175 | silmitasertib 0.075 | [2] -0.026 | entospletinib 0.039

NR3C1 isoform 3 (UniProt P04150)
inactive: [1] -0.124 | silmitasertib 0.05 | [2] 0.046 | entospletinib -0.064

NSDHL (UniProt Q15738)
inactive: [1] -0.031 | vorinostat 0.004 | silmitasertib 0.063 | [2] -0.041 | entospletinib -0.021

NSA2 (UniProt O95478)
inactive: [1] 0.035 | vorinostat -0.073 | silmitasertib -0.042 | entospletinib 0.208

NPLOC4 (UniProt I3L3I1)
inactive: [2] 0.253 | entospletinib -0.146

NPL (UniProt Q9BXD5)
inactive: [1] -0.039 | vorinostat -0.316 | silmitasertib 0.084 | entospletinib -0.016

NME4 (UniProt O00746)
inactive: vorinostat 0.101 | silmitasertib 0.058 | [2] -0.11 | entospletinib -0.099

NOP58 (UniProt Q9Y2X3)
inactive: [1] -0.015 | vorinostat -0.081 | silmitasertib -0.002 | [2] 0.016 | entospletinib 0.007

NOLC1 isoform 3 (UniProt Q14978)
inactive: vorinostat 0.244 | silmitasertib -0.033 | [2] 0.036 | entospletinib 0.148

NR2F2 (UniProt P24468)
active: vorinostat -0.389
inactive: silmitasertib 0.176 | [2] 0.017

NR2F6 (UniProt P10588)
inactive: [2] 0.061 | entospletinib 0.079

NRIP1 (UniProt P48552)
inactive: vorinostat 0.274 | silmitasertib 0 | [2] 0.06

NUBPL (UniProt Q8TB37)
inactive: [1] 0.356 | entospletinib -0.097

NOMO3 (UniProt P69849)
inactive: vorinostat 0.033 | silmitasertib 0.159 | [2] -0.013

NOL4L (UniProt Q96MY1)
inactive: vorinostat -0.06 | silmitasertib 0.036 | entospletinib -0.053

NUDT5 (UniProt C9JYY9)
inactive: vorinostat -0.041 | silmitasertib 0.129 | entospletinib 0.01

NTPCR (UniProt Q9BSD7)
active: vorinostat -0.331
inactive: [1] 0.014 | silmitasertib 0.029 | [2] 0.003 | entospletinib 0.059

NUDT4 (UniProt Q9NZJ9)
inactive: [1] -0.144 | vorinostat -0.162 | silmitasertib 0.028 | [2] 0.03 | entospletinib -0.01

NT5C2 (UniProt Q5JUV3)
inactive: [2] -0.03 | entospletinib 0.029
